Results: the supplement of paper PMC8551327
Where “and” joins values, the source holds several entries; their conditions need not be identical. Equal values may be shown once. Where a name gives a salt, the structure may show the parent alone. This is one part of the list. Rule as the data show it: active = 1.25 or more and inactive = the rest. Many values rest on one well or one pass, so single values are uncertain.

Tested on: Kcc2-LUC knock-in mouse primary cortical neurons (Kcc2 promoter reporter)
Test: Kcc2 promoter-driven luciferase activity relative to vehicle control (fold of vehicle (ratio)); higher = stronger Kcc2 promoter activation (Kcc2 expression enhancer)
Conditions: 100 nM; 48 h

Kcc2 promoter-driven luciferase activity, active:
CCN(CC)CCCC(C)Nc1ccnc(/C=C/c2ccc(Cl)cc2)c1 (stereo unspecified) [Pyridine, (E)-] 1.27
Nc1nc(SCCc2ccccc2)c2[nH]cnc2n1 [6-phenethylsulfanyl-7H-purin-2-amine] 1.27
O=C1CC[C@@H](C(=O)O)N1 [Pidolic Acid] 1.26
CC1(C)O[C@@H]2C[C@H]3[C@@H]4C[C@H](F)C5=CC(=O)C=C[C@]5(C)[C@@]4(F)[C@@H](O)C[C@]3(C)[C@]2(C(=O)CO)O1 1.33

Kcc2 promoter-driven luciferase activity, inactive:
Cc1ccc(C)c(NC(=O)C(=O)C(C(=O)c2ccc3ccccc3c2)C2OC(=O)c3ccccc32)c1 (stereo unspecified) 0.96
Nc1nc(=S)c2ncn([C@@H]3C[C@H](O)[C@@H](CO)O3)c2[nH]1 [.alpha.-Thiodeoxyguanosine] 0.7
Cn1c(=O)c2nc3sc4c(n3c2n(C)c1=O)C(=O)c1ccccc1C4=O 0.54
COc1ccc(/C=C\c2cc(OC)c(OC)c(OC)c2)cc1OP(=O)(O)O [Combretastatin A-4 Phosphate Sodium salt] 1.13
Cc1ccc2[nH]c(O)c(N=Nc3ccccc3[N+](=O)[O-])c2c1 [5-Methyl-3-[2-(2-nitrophenyl)hydrazinyl]indol-2-one] 0.9
Cc1c2oc3c(C)ccc(C(=O)N[C@@H]4C(=O)N[C@H](C(C)C)C(=O)N5CCC[C@H]5C(=O)N(C)CC(=O)N(C)[C@@H](C(C)C)C(=O)O[C@@H]4C)c3nc-2c(C(=O)N[C@@H]2C(=O)N[C@H](C(C)C)C(=O)N3CCC[C@H]3C(=O)N(C)CC(=O)N(C)[C@@H](C(C)C)C(=O)O[C@@H]2C)c(N)c1=O [Dactinomycin] 1.1
COc1ccc2oc(-c3ccncc3)cc(=O)c2c1 [6-methoxy-2-pyridin-4-ylchromen-4-one] 0.61
CC(=O)/C(C)=N/NC(=O)c1ccccc1O [2-Hydroxy-N'-(3-oxobutan-2-ylidene)benzohydrazide] 1.24
O=S(=O)(O)SC/C=C/CSS(=O)(=O)O [Disodium (E)-1,4-bis(sulfonatosulfanyl)but-2-ene] 0.72
CN(C)c1cccc(/C=C(\C#N)c2ccccc2)c1 [(Z)-3-[3-(dimethylamino)phenyl]-2-phenylprop-2-enenitrile] 0.97
CCN(CC)C(=S)S [Dithiocarb] 0.84
C=CCOC1OC(CO[Si](C)(C)C(C)(C)C)C(OCc2ccccc2)C(OCc2ccccc2)C1OCc1ccccc1 (stereo unspecified) 1.08
OCc1ccc(-c2ccc(-c3ccc(CO)s3)o2)s1 [Sos Bismethanol] 0.95
COc1cc(C(O)CCBr)c(OC)cc1C (stereo unspecified) [3-Bromo-1-(2,5-dimethoxy-4-methylphenyl)-1-propanol] 1.04
CC[n+]1c(-c2ccccc2)c2cc(N)ccc2c2ccc(N)cc21 [ETHIDIUM BROMIDE; Homidium bromide] 1.04
CN[C@@H]1[C@H](O)[C@H](NC)[C@H]2O[C@@]3(O)C(=O)C[C@@H](C)O[C@H]3O[C@@H]2[C@H]1O [Spectinomycin Sulfate] 1.23
O=C(ON=C1c2ccccc2C(Br)C(Br)c2ccccc21)c1ccccc1 (stereo unspecified) 1.22
C=C(C)[C@@H]1CC[C@]2(C)CC[C@]3(C)[C@H](CC[C@@H]4[C@@]5(C)CC[C@H](O)C(C)(C)[C@@H]5CC[C@]43C)[C@@H]12 [Lupeol] 0.46
CCOC(=O)CCn1ncc(Cl)c(Cl)c1=O [Ethyl 3-(4,5-dichloro-6-oxo-1(6H)-pyridazinyl)propanoate] 1.03
CC1=C\C(O)CC(=O)Cc2nc(co2)C(=O)N2CCC=C2C(=O)OC(C(C)C)C(C)/C=C/C(=O)NC/C=C\1.CCC1NC(=O)C(NC(=O)c2ncccc2O)C(C)OC(=O)C(c2ccccc2)NC(=O)C2CC(=O)CCN2C(=O)C(Cc2ccc(N(C)C)cc2)N(C)C(=O)C2CCCN2C1=O (stereo unspecified) [Mikamycin, B grade] 0.91
Cc1cc(C)c(NC(=O)/C=C/c2ccccc2)c(C)c1 [N-Mesityl-3-phenylacrylamide] 0.34

Quoted at random: 2 entries already listed.
Kcc2 promoter-driven luciferase activity, inactive:
CCN(CC)C(=S)S [Dithiocarb] 0.84
CN[C@@H]1[C@H](O)[C@H](NC)[C@H]2O[C@@]3(O)C(=O)C[C@@H](C)O[C@H]3O[C@@H]2[C@H]1O [Spectinomycin Sulfate] 1.23

Following part.

Kcc2 promoter-driven luciferase activity, 1.59 (active) and 1.2 (inactive):
Nc1ncnc2c1ncn2C1OC(CO)C(O)C1O (stereo unspecified) [Xylosyladenine]
